From the supplement of paper PMC10849652
The list shows a part of the results. Residues, ends and D or L forms follow the SMILES beside them. *: point of attachment. Cbz = O=C(OCc1ccccc1)*

By UniProt entry, the sequences of proteins in these tests, tags left out. Where a name states a change or a piece, a line headed by the entry shows the natural chain unless it says otherwise.
UniProt Q8IZ07: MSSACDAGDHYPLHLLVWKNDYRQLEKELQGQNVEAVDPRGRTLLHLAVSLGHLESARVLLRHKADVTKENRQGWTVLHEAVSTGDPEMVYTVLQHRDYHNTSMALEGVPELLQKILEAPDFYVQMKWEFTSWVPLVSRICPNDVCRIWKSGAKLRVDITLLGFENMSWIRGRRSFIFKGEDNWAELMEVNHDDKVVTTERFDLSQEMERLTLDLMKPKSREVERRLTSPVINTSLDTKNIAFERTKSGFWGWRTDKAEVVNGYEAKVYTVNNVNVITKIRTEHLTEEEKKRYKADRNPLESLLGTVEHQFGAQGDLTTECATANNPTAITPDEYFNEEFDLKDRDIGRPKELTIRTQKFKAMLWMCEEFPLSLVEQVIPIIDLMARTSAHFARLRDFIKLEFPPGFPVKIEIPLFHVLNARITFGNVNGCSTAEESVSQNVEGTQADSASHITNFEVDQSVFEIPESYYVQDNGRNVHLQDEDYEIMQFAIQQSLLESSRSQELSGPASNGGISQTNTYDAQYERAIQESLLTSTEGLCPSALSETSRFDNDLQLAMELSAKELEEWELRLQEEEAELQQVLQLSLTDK
UniProt P61204: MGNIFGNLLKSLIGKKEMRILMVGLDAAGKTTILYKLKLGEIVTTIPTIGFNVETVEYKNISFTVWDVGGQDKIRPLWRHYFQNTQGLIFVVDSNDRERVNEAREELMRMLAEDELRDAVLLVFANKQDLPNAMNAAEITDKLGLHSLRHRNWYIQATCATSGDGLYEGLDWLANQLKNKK
UniProt P02654: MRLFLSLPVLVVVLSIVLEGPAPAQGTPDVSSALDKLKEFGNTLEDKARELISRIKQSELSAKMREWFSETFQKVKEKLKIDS
UniProt O15084: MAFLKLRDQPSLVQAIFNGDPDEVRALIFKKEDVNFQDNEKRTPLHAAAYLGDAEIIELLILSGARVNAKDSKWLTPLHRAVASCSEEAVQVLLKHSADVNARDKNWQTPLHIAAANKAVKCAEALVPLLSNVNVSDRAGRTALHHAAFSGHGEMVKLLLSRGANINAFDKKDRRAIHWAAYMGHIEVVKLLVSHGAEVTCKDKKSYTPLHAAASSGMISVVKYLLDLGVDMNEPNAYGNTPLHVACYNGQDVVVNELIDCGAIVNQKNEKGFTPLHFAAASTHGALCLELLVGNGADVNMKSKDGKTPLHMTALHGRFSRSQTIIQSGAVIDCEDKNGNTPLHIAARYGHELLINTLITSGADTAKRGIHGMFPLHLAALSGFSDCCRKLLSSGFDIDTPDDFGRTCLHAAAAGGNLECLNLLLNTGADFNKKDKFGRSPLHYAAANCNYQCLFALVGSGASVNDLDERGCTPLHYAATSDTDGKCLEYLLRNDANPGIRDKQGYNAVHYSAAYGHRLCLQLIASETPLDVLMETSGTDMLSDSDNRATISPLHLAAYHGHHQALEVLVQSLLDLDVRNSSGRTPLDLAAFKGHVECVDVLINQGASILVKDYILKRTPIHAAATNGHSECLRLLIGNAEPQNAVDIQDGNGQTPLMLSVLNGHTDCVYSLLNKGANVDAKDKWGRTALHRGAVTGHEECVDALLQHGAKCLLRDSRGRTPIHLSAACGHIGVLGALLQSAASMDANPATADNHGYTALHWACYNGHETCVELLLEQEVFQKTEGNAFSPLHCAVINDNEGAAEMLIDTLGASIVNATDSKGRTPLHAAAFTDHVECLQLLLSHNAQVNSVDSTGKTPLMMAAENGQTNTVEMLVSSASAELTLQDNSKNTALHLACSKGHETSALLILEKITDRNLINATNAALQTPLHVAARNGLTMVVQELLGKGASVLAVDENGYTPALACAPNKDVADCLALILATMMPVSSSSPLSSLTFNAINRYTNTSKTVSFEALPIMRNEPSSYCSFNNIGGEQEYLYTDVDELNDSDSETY
UniProt P52566: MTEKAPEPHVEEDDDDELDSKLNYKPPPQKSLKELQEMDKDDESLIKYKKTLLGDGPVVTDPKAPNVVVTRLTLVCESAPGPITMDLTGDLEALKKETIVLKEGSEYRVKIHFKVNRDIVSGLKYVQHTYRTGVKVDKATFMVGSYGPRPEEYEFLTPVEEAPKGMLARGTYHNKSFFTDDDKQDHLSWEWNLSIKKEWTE
UniProt Q9Y2T2: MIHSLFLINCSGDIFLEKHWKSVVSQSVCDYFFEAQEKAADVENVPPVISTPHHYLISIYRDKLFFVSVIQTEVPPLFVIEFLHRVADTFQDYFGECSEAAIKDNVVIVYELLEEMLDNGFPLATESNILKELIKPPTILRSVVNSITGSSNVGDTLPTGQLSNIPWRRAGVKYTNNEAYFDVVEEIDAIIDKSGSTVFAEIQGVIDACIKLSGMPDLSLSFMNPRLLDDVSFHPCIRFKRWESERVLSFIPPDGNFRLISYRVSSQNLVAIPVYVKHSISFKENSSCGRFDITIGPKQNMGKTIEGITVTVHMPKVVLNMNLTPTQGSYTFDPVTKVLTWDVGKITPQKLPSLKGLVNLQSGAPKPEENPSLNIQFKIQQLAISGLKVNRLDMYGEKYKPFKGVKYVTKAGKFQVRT
UniProt Q8IWZ3: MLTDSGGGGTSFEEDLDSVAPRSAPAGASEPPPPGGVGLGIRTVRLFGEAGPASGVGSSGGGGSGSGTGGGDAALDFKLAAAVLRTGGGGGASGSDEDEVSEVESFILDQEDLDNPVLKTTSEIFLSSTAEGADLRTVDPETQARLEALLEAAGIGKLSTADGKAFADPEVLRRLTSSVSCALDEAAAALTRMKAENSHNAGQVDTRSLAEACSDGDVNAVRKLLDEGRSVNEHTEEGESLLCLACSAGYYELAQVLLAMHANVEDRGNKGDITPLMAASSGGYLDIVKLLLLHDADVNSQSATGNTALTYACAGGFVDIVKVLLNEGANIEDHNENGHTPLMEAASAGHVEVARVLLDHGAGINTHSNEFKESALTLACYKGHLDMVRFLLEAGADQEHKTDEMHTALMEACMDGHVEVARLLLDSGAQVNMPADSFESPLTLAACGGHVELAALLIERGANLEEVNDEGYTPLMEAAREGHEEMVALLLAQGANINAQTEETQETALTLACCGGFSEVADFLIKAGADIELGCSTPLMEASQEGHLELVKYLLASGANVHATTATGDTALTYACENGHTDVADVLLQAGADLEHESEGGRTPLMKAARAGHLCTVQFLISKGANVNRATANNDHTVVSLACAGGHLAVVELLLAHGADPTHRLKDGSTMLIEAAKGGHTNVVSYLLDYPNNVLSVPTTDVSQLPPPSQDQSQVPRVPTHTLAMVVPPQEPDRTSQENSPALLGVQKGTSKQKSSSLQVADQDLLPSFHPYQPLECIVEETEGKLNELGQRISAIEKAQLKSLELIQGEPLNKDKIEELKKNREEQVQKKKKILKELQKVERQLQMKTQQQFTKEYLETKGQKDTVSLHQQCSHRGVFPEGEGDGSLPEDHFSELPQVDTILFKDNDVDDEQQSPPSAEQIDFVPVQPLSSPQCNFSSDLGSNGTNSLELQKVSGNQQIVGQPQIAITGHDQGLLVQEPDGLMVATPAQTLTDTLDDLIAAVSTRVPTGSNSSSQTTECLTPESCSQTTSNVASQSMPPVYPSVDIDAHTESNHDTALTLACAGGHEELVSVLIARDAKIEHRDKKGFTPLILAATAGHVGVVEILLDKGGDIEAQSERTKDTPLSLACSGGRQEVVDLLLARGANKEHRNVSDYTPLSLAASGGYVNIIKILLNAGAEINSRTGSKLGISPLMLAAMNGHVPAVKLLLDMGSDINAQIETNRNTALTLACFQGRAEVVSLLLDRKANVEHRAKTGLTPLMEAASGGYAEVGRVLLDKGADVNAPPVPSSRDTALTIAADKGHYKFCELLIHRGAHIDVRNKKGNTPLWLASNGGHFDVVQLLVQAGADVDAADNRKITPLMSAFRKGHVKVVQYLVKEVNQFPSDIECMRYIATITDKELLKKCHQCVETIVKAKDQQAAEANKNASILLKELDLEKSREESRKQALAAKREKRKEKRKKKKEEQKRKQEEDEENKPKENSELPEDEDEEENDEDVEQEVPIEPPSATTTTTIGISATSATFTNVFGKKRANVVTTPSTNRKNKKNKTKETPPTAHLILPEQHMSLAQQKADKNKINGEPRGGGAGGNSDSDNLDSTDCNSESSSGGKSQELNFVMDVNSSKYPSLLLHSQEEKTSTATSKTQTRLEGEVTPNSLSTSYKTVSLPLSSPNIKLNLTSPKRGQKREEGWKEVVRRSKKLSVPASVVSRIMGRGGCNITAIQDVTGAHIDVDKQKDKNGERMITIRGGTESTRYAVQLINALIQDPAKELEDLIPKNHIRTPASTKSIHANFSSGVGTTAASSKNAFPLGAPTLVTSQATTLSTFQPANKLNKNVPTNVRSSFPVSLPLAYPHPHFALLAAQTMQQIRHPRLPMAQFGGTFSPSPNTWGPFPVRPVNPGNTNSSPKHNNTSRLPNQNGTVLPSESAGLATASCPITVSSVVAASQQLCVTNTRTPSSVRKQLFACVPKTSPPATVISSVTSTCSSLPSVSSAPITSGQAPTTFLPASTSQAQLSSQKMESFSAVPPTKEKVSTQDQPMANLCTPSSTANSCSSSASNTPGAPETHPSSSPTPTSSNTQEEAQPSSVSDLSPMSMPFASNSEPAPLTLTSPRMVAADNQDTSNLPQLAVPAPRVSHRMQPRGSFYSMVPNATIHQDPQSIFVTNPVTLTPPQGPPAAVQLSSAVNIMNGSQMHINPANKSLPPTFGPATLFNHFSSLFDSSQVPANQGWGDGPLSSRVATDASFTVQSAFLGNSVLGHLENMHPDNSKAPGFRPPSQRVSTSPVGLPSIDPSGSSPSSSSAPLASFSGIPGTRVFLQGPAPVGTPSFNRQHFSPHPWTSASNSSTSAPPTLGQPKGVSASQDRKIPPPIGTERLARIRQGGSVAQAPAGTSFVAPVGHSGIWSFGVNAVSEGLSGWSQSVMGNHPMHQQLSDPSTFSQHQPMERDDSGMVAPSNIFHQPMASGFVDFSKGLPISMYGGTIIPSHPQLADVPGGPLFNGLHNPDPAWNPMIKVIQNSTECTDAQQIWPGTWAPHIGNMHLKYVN
UniProt Q4KMQ2: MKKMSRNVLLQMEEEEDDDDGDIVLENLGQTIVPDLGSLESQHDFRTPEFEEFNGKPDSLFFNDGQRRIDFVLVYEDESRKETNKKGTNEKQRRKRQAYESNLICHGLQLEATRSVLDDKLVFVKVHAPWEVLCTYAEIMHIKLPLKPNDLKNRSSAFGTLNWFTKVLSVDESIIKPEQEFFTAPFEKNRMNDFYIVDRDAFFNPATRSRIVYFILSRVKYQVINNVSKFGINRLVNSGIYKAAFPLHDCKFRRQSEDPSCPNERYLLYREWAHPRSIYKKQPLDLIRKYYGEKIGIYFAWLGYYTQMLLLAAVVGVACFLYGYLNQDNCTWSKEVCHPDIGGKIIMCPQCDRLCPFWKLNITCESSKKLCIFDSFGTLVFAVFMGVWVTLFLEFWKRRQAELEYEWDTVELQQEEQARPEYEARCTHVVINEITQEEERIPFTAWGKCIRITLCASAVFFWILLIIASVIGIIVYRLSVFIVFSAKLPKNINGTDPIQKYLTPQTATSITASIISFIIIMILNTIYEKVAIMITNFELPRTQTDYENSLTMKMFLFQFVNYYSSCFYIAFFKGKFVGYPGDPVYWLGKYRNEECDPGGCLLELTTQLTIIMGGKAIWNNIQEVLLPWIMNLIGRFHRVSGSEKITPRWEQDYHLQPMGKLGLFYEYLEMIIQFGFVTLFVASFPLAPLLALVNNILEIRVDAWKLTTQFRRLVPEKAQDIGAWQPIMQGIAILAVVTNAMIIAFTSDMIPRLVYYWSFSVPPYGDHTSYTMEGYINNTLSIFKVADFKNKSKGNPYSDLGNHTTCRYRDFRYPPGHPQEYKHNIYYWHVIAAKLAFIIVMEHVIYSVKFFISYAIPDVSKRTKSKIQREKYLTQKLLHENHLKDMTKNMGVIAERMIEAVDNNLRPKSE
UniProt Q8IV38: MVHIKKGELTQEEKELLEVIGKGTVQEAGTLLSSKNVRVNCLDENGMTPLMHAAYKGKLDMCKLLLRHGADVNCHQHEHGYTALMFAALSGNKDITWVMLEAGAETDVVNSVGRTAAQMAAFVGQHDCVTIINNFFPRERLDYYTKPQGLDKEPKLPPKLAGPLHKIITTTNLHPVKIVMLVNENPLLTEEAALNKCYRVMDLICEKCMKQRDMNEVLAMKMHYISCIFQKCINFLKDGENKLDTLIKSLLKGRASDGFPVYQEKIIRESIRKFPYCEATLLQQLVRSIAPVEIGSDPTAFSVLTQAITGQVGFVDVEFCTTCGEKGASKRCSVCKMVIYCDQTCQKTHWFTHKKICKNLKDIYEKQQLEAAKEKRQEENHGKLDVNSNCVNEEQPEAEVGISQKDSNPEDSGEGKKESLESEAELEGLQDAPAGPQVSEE
UniProt P62330: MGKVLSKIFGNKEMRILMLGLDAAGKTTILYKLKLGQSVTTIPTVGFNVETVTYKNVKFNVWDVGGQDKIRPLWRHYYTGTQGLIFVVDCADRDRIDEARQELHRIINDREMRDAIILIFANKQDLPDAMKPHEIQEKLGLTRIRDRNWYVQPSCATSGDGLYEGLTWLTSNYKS

Legend:
Test in all cases: log2 fold change, soluble protein after heating vs DMSO (PISA); higher = thermal stabilisation; K562 cells, 10 uM, 30 min; active = over 0.2 and 3.5 SD of the protein, either way, in both replicates (recomputed)
IRAK-1-4 Inhibitor I = compound: C1COCCN1CCN2C3=CC=CC=C3N=C2NC(=O)C4=CC(=CC=C4)[N+](=O)[O-] [IRAK-1-4 Inhibitor I]
In short: (§1)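 Soluble protein was quantified by TMTpro 16plex LC-MS/MS after channel sums were equalised. It was obtained as the supernatant after 21,000xg for 90 min from pooled aliquots of K562 cells (2×10^6 cells/mL, 10 μM compound, 30 min) heated for 3 min across 48°C-58°C and extracted in PBS with 0.5% NP-40 at 4°C. Thermal stability values are relative to control samples and come from duplicates. They are given as log2 fold changes.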

ibrutinib = compound: C=CC(=O)N1CCC[C@@H](n2nc(-c3ccc(Oc4ccccc4)cc3)c3c(N)ncnc32)C1 [ibrutinib]
In short: as §1

[1] = compound: CC(=O)c1cnc2ccc(-c3cc(Cl)c(O)c(Cl)c3)nc2c1N[C@H]1CC[C@H](CN(C)C)CC1
In short: as §1

ralimetinib = compound: CC(C)(C)Cn1c(N)nc2ccc(-c3[nH]c(C(C)(C)C)nc3-c3ccc(F)cc3)nc21 [ralimetinib]
In short: as §1

[2] = compound: CC(C)(O)CC(=O)NCCn1ccc2ncnc(Nc3ccc(Oc4cccc(C(F)(F)F)c4)c(Cl)c3)c21
In short: as §1

[3] = compound: CC(C)C1=C2N=C(C=C(N2N=C1)NCC3=CC=CC=C3)NCCCCCCN
In short: as §1

[4] = compound: CC(C)C[C@@H](C=O)NC(=O)[C@H](CC(C)C)NC(=O)[C@H](CC(C)C)NC(=O)OCc1ccccc1
In short: as §1

pinometostat = compound: CC(C)N(C[C@H]1O[C@@H](n2cnc3c(N)ncnc32)[C@H](O)[C@@H]1O)[C@H]1C[C@@H](CCc2nc3cc(C(C)(C)C)ccc3[nH]2)C1 [pinometostat]
In short: as §1

[5] = compound: CC1=C(C(CC(=O)N1)C2=CC=C(C=C2)C(F)(F)F)C(=O)NC3=C(C=C4C(=C3)C=NN4)F
In short: as §1

[6] = compound: CC1=C(C2=C(C=C1)C(=O)C3=CC=CC=C3N2CCCN)C
In short: as §1

Measured: log2 fold change

ANKRD13A (UniProt Q8IZ07)
inactive: IRAK-1-4 Inhibitor I 0.078 | ibrutinib -0.008 | [1] -0.022 | ralimetinib -0.01 | [2] 0.019 | [3] 0.038 | [4] 0.038 | pinometostat 0.017 | [5] 0.03 | [6] -0.041

ARIH1 (UniProt Q9Y4X5)
inactive: IRAK-1-4 Inhibitor I 0.052 | ibrutinib 0.005 | [1] 0.043 | ralimetinib -0.061 | [2] -0.016 | [3] 0.034 | [4] -0.01 | pinometostat -0.002 | [5] 0.069 | [6] 0.002

ARF3 (UniProt P61204)
inactive: IRAK-1-4 Inhibitor I -0.004 | ibrutinib 0.003 | [1] -0.006 | ralimetinib -0.021 | [2] -0.018 | [3] 0.075 | [4] -0.018 | pinometostat -0.049 | [5] -0.008 | [6] -0.005

ANXA4 (UniProt P09525)
inactive: IRAK-1-4 Inhibitor I -0.032 | ibrutinib -0.031 | [1] 0 | ralimetinib -0.018 | [2] -0.097 | [3] -0.089 | [4] 0.067 | pinometostat 0.113 | [5] -0.031 | [6] 0.143

APOC1 (UniProt P02654)
inactive: IRAK-1-4 Inhibitor I 0.1 | ibrutinib 0.016 | [1] -0.007 | ralimetinib -0.037 | [2] -0.111 | [3] 0.003 | [4] -0.023 | pinometostat -0.017 | [5] 0.045 | [6] 0.182

ANAPC4 isoform 3 (UniProt Q9UJX5)
inactive: IRAK-1-4 Inhibitor I -0.03 | ibrutinib 0.004 | [1] 0.006 | ralimetinib 0.056 | [2] 0.036 | [3] -0.051 | [4] 0.001 | pinometostat 0.065 | [5] -0.004 | [6] -0.041

ANKRD28 (UniProt O15084)
inactive: IRAK-1-4 Inhibitor I 0.012 | ibrutinib 0.011 | [1] -0.081 | ralimetinib 0.013 | [2] -0.022 | [3] 0.005 | [4] -0.045 | pinometostat 0.029 | [5] 0.042 | [6] -0.012

ANXA7 (UniProt P20073)
inactive: IRAK-1-4 Inhibitor I 0.037 | ibrutinib 0.018 | [1] 0.009 | ralimetinib 0.007 | [2] -0.03 | [3] 0.025 | [4] -0.012 | pinometostat -0.038 | [5] 0.046 | [6] 0.007

ARHGDIB (UniProt P52566)
inactive: IRAK-1-4 Inhibitor I 0.037 | ibrutinib -0.031 | [1] -0.017 | ralimetinib -0.018 | [2] -0.01 | [3] 0.039 | [4] -0.021 | pinometostat 0.002 | [5] -0.021 | [6] 0.044

AP5Z1 (UniProt O43299)
inactive: IRAK-1-4 Inhibitor I 0.253 | ibrutinib 0.106 | [1] -0.107 | ralimetinib -0.059 | [2] 0.066 | [3] 0 | [4] 0.091 | pinometostat 0.058 | [5] -0.004 | [6] 0.07

ANXA11 (UniProt P50995)
inactive: IRAK-1-4 Inhibitor I 0.02 | ibrutinib -0.08 | [1] -0.028 | ralimetinib -0.003 | [2] -0.08 | [3] -0.037 | [4] -0.039 | pinometostat -0.011 | [5] -0.023 | [6] 0.042

ARF5 (UniProt P84085)
inactive: IRAK-1-4 Inhibitor I -0.007 | ibrutinib 0.011 | [1] 0.005 | ralimetinib 0.01 | [2] -0.019 | [3] 0.061 | [4] -0.027 | pinometostat -0.037 | [5] -0.028 | [6] 0.01

APMAP (UniProt Q9HDC9)
inactive: IRAK-1-4 Inhibitor I 0.033 | ibrutinib -0.015 | [1] -0.01 | ralimetinib -0.07 | [2] 0.026 | [3] 0.025 | [4] -0.001 | pinometostat -0.019 | [5] 0.02 | [6] 0

APRT (UniProt P07741)
inactive: IRAK-1-4 Inhibitor I 0.065 | ibrutinib 0.006 | [1] 0.004 | ralimetinib -0.038 | [2] -0.017 | [3] 0.037 | [4] -0.006 | pinometostat -0.053 | [5] -0.005 | [6] 0.008

ANKRD17 (UniProt O75179)
inactive: IRAK-1-4 Inhibitor I -0.043 | ibrutinib -0.044 | [1] -0.112 | ralimetinib 0.205 | [2] 0 | [3] -0.146 | [4] 0.109 | pinometostat 0.268 | [5] 0.028 | [6] -0.094

ARHGAP45 isoform 2 (UniProt Q92619)
inactive: IRAK-1-4 Inhibitor I 0.004 | ibrutinib -0.024 | [1] 0.052 | ralimetinib -0.047 | [2] 0.068 | [3] 0.036 | [4] 0.007 | pinometostat 0 | [5] 0.048 | [6] 0.042

ARCN1 (UniProt P48444)
inactive: IRAK-1-4 Inhibitor I -0.002 | ibrutinib -0.03 | [1] 0.008 | ralimetinib -0.016 | [2] 0.03 | [3] 0.048 | [4] -0.008 | pinometostat -0.009 | [5] 0.01 | [6] -0.016

APOBEC3C (UniProt Q9NRW3)
inactive: IRAK-1-4 Inhibitor I -0.072 | ibrutinib 0.073 | [1] 0.019 | ralimetinib 0.117 | [2] 0.064 | [3] -0.006 | [4] 0.188 | pinometostat 0.338 | [5] -0.039 | [6] -0.262

ARHGAP12 (UniProt Q8IWW6)
inactive: IRAK-1-4 Inhibitor I 0.096 | ibrutinib 0.112 | [1] -0.17 | ralimetinib 0.03 | [2] -0.049 | [3] 0.009 | [4] 0.09 | pinometostat 0 | [5] -0.036 | [6] 0.097

ANP32A (UniProt P39687)
inactive: IRAK-1-4 Inhibitor I -0.022 | ibrutinib -0.026 | [1] -0.006 | ralimetinib 0 | [2] -0.051 | [3] 0.008 | [4] -0.054 | pinometostat -0.132 | [5] 0.034 | [6] -0.11

AP3M1 (UniProt Q9Y2T2)
inactive: IRAK-1-4 Inhibitor I -0.015 | ibrutinib -0.007 | [1] -0.021 | ralimetinib 0 | [2] -0.15 | [3] -0.02 | [4] 0.048 | pinometostat 0.014 | [5] 0.015 | [6] -0.024

ANK1 isoform 14 (UniProt P16157)
inactive: IRAK-1-4 Inhibitor I -0.19 | ibrutinib -0.044 | [1] 0.101 | ralimetinib 0.339 | [2] 0.001 | [3] -0.431 | [4] 0.257 | pinometostat 0.538 | [5] 0.02 | [6] -0.141

ANXA3 (UniProt P12429)
inactive: IRAK-1-4 Inhibitor I 0.043 | ibrutinib 0.039 | [1] -0.024 | ralimetinib -0.031 | [2] -0.007 | [3] 0.019 | [4] 0.032 | pinometostat 0.015 | [5] 0.001 | [6] 0.097

ANKHD1 isoform 6 (UniProt Q8IWZ3)
inactive: IRAK-1-4 Inhibitor I -0.118 | ibrutinib -0.007 | [1] 0.054 | ralimetinib 0.192 | [2] -0.017 | [3] -0.394 | [4] 0.094 | pinometostat 0.323 | [5] 0.038 | [6] -0.109

ANO6 isoform 2 (UniProt Q4KMQ2)
inactive: IRAK-1-4 Inhibitor I 0.079 | ibrutinib 0.045 | [1] -0.011 | ralimetinib -0.025 | [2] -0.089 | [3] -0.026 | [4] 0.004 | pinometostat 0.026 | [5] -0.038 | [6] 0.08

ANKMY2 (UniProt Q8IV38)
inactive: IRAK-1-4 Inhibitor I -0.003 | ibrutinib 0.003 | [1] -0.014 | ralimetinib 0.049 | [2] -0.042 | [3] -0.028 | [4] -0.034 | pinometostat -0.012 | [5] 0.002 | [6] 0.035

ANK3 (UniProt Q12955)
inactive: IRAK-1-4 Inhibitor I -0.287 | ibrutinib -0.015 | [1] 0.12 | ralimetinib -0.036 | [2] 0.032 | [3] -0.053 | [4] 0.106 | pinometostat 0.403 | [5] 0.035 | [6] 0.046

ARHGEF1 isoform 3 (UniProt Q92888)
inactive: IRAK-1-4 Inhibitor I -0.093 | ibrutinib -0.007 | [1] -0.007 | ralimetinib 0.149 | [2] 0.05 | [3] -0.275 | [4] 0.098 | pinometostat 0.222 | [5] -0.019 | [6] -0.044

ARF6 (UniProt P62330)
inactive: IRAK-1-4 Inhibitor I 0.012 | ibrutinib 0.03 | [1] 0.004 | ralimetinib 0.04 | [2] 0.001 | [3] 0.155 | [4] -0.091 | pinometostat -0.012 | [5] -0.015 | [6] 0.089

2 records drawn at random from those above, as already listed:
ANKMY2 (UniProt Q8IV38)
inactive: IRAK-1-4 Inhibitor I -0.003 | ibrutinib 0.003 | [1] -0.014 | ralimetinib 0.049 | [2] -0.042 | [3] -0.028 | [4] -0.034 | pinometostat -0.012 | [5] 0.002 | [6] 0.035

ANK3 (UniProt Q12955)
inactive: IRAK-1-4 Inhibitor I -0.287 | ibrutinib -0.015 | [1] 0.12 | ralimetinib -0.036 | [2] 0.032 | [3] -0.053 | [4] 0.106 | pinometostat 0.403 | [5] 0.035 | [6] 0.046

Continuation:

ANKRD49 (UniProt Q8WVL7)
inactive: IRAK-1-4 Inhibitor I -0.01 | ibrutinib -0.095 | [1] -0.089 | ralimetinib -0.037 | [2] -0.081 | [3] 0.033 | [4] -0.015 | pinometostat -0.045 | [5] 0.002 | [6] 0.035
